Test results published in US9499599B2 (Ipsen Pharma S.A.S., priority 2005, dated 2016).

Key:
[1] = solid-phase peptide synthesis; conditions: whole synthesis, scale 0.25 mmol
[2] = Fmoc solid-phase peptide synthesis; Rink Amide MBHA resin (0.72 mmol/g); MBHA resin ([…]); HBTU/HOBt; HBTU/DIEA; DIC/HOBt; conditions: whole synthesis, scale of the general procedure 0.25 mmol
[3] = general procedure: Fmoc solid-phase peptide synthesis; Rink Amide MBHA resin (0.72 mmol/g); MBHA resin ([…]); HBTU/HOBt; HBTU/DIEA; DIC/HOBt; conditions: whole synthesis; for final HPLC purity: analytical HPLC
[4] = scale of the general procedure 0.25 mmol

In the case of H-Inp-D-1-Nal-D-Trp-2-Thi-Lys-NH2, the “final HPLC purity” value ([1]; analytical HPLC) is reported as 89% and the isolated mass [1] is reported as 31.8 mg.

For (Cys^3(S-Decyl))hGhrelin(1-28)-NH2, the “final HPLC purity” value ([2]; analytical HPLC) was 99.9% and the isolated yield [2] was “yield 10.2%”.

For “(Ac-Aib^1, Aib^2,10, Glu(NH-Hexyl)^3,17)hGhrelin(1-28)-NH2”, the “final HPLC purity” value ([3]; scale 0.1 mmol) was 97.5%, the isolated mass ([3]; scale 0.1 mmol) was 27.1 mg and the isolated yield ([3]; scale 0.1 mmol) was 6.3%.

With Inp-D-2-Nal-D-Trp-Phe-Lys-NH2 the “final HPLC purity” value [3, 4] was 99% and the isolated yield [3, 4] was 18.5%.

In the case of “(Aib^1,2,10, Glu(NH-hexyl)^3,17)hGhrelin(1-28)-NH2”, the “final HPLC purity” value [3, 4] is reported as 96.5%.
